Laboratory results: paper doi:10.1101/2019.12.12.874503

By UniProt entry, the sequences of proteins in these tests, tags left out.
UniProt P17746: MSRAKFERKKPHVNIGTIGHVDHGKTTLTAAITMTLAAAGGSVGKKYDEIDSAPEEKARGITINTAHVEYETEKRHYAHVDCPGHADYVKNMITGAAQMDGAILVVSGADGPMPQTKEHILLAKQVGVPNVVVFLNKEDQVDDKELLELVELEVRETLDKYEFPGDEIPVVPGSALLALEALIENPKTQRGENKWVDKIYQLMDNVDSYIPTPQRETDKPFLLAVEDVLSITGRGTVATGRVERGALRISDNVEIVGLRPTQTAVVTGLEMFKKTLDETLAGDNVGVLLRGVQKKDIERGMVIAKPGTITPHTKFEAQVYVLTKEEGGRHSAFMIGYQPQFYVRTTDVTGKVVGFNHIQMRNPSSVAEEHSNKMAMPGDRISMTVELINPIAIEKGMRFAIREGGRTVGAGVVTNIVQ

target: T1, uL5c-HA (chloroplast-encoded ribosomal protein Rpl5 with C-terminal triple-HA tag) (Chlamydomonas reinhardtii) (UniProt Q8HTL1); assay: affinity purification with mass spectrometry
T1 sequence: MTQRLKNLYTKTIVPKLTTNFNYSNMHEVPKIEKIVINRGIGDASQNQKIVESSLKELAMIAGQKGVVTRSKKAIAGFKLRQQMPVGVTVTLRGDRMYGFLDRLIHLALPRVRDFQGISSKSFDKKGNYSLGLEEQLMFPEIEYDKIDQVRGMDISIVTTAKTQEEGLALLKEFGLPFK

Substance	binding
ALB3.1	no binding
ALB3.2	binds
CCB4	binds
CGL27 (enzyme)	binds
CGL59/Y3IP1	binds
CGL71/PYG7	binds
CGLD11	binds
CGLD22	binds
CPLD28/LPA3	binds
Cre01.g006150	binds
Cre01.g033832	binds
Cre02.g145000	binds
Cre06.g278264	binds
Cre07.g335400	binds
DLA2 (subunit of the chloroplast pyruvate dehydrogenase complex) (enzyme)	binds
EF-Tu (from UniProt P17746 1-418)	binds
EFG	binds
EFP	binds
Get3b	binds
HFLX	binds
HSP90C	binds

Substance	binding
IF1	binds
IF2	binds
IF3	binds
LEPA	binds
LPA1	binds
MAP1D (MAP-related protein) (enzyme)	binds
NCC1	binds
NCC2	binds
NTRC (enzyme)	binds
PAM68	binds
PDF1B (chloroplast variant of peptidyl deformylase) (enzyme)	binds
PNP1 (enzyme)	binds
PSRP1	binds
PSRP3	no binding
PSRP4	no binding
PUS1 (enzyme)	binds
PUS3 (enzyme)	binds
PUS8 (enzyme)	binds
PUS9 (enzyme)	binds
PUS19 (enzyme)	binds
RNAseJ (enzyme)	binds

Substance	binding
SECA1	binds
STIC2	binds
TEF30	binds
TMU3 (enzyme)	binds
co-chaperone CDJ1	binds
cpEFT	binds
cpFTSY	binds
cpNAT1 (Cre14.g614750), endogenous (enzyme)	binds
cpSECY1	binds
cpSRP54	binds
peptidyl-tRNA hydrolase (Cre02.g076600) (enzyme)	binds
peroxiredoxin PRX1 (enzyme)	binds
plastid release factor 1 (PRF1)	binds
prolyl hydroxylase PFH11 (enzyme)	binds
prolyl hydroxylase PFH17 (enzyme)	binds
prolyl hydroxylase PHX23 (enzyme)	binds
thioredoxin of the F-type	binds
thioredoxin of the X-type	binds
thioredoxin of the Y-type	binds
trigger factor (TIG1)	binds

No constants are given. Whether binding was seen depends on the method and setting. Binding seen in cells or lysates may run through a third protein. Here binding means that the protein was enriched with, or labelled near, the bait; the list need not be complete. No binding means not detected with the bait. Tags and fused reporters may be left off the sequences shown.
